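Human melanoma cells were exposed to a pair of drugs for 72 h in 1,536-well plates and read by automated microscopy after fixing and staining. Each value is the count of nuclei relative to DMSO-treated wells, in %, so that 100 equals the control. Concentrations were fixed for each drug; these are the lower of two levels, a fifth of the higher. These are primary screening values without error estimates.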 Only some of the drugs and lines screened are listed, without regard to their results. A dash means that no value is listed here.

Drugs:
AZD7762: NC(=O)Nc1cc(-c2cccc(F)c2)sc1C(=O)N[C@H]1CCCNC1 at 0.02 µM
dasatinib: Cc1nc(Nc2ncc(C(=O)Nc3c(C)cccc3Cl)s2)cc(N2CCN(CCO)CC2)n1 at 0.004 µM
darinaparsin: C[As](C)SC[C@H](NC(=O)CC[C@H](N)C(=O)O)C(=O)NCC(=O)O at 0.4 µM
SU6656: CN(C)S(=O)(=O)c1ccc2c(c1)/C(=C/c1cc3c([nH]1)CCCC3)C(=O)N2 at 0.4 µM
A-769662: N#Cc1c(O)c2c(-c3ccc(-c4ccccc4O)cc3)csc2[nH]c1=O at 2 µM
U73122: COc1ccc2c(c1)CCC1C2CCC2(C)C(NCCCCCCN3C(=O)C=CC3=O)CCC12 (centres unmarked) at 0.4 µM
TCS401: O=C(O)C(=O)Nc1sc2c(c1C(=O)O)CCNC2 at 1.67 µM
BMS-536924: Cc1cc(N2CCOCC2)cc2[nH]c(-c3c(NC[C@@H](O)c4cccc(Cl)c4)cc[nH]c3=O)nc12 at 0.2 µM
fingolimod: CCCCCCCCc1ccc(CCC(N)(CO)CO)cc1 at 2 µM
GW441756: Cn1cc(/C=C2\C(=O)Nc3cccnc32)c2ccccc21 at 0.4 µM
veliparib: C[C@]1(c2nc3c(C(N)=O)cccc3[nH]2)CCCN1 at 1.4 µM
T0901317: O=S(=O)(c1ccccc1)N(CC(F)(F)F)c1ccc(C(O)(C(F)(F)F)C(F)(F)F)cc1 at 1.4 µM
fludarabine: Nc1nc(F)nc2c1ncn2[C@@H]1O[C@H](CO)[C@@H](O)[C@@H]1O at 0.2 µM
nutlin-3: COc1ccc(C2=N[C@@H](c3ccc(Cl)cc3)[C@@H](c3ccc(Cl)cc3)N2C(=O)N2CCNC(=O)C2)c(OC(C)C)c1 at 0.1 µM

Combination	IST-MEL1	C32	COLO 792	MEL-HO	LB2518-MEL	LOX IMVI
U73122 + fingolimod	98.1	99.1	97.7	80.6	95.6	132
fingolimod + GW441756	111	85.4	90.8	104	101	89.4
fludarabine + fingolimod	89.5	99.4	87.1	92.8	85.8	93.3
U73122 + AZD7762	110	99.4	96.5	82.9	144	85.1
darinaparsin + A-769662	88.6	98.5	92.5	99.1	98.2	112
T0901317 + nutlin-3	104	89.3	91.6	95.3	84.2	67.1
T0901317 + darinaparsin	91.8	87.3	103	86.8	118	114
U73122 + darinaparsin	108	104	97.3	100	103	123
veliparib + darinaparsin	86.5	117	95.1	101	82.9	130
A-769662 + fingolimod	98.5	118	92.7	93.1	95.0	103
A-769662 + nutlin-3	95.9	102	106	98.4	91.0	77.0
fludarabine + T0901317	100	94.3	92.3	95.3	-	112
SU6656 + GW441756	99.4	90.8	79.7	94.2	91.9	105
veliparib + T0901317	104	84.0	105	94.9	90.5	78.1
SU6656 + A-769662	98.0	85.8	87.2	85.7	96.8	115
SU6656 + nutlin-3	108	95.6	91.8	98.0	78.3	100
GW441756 + dasatinib	86.3	90.3	61.9	108	-	49.8
BMS-536924 + TCS401	104	101	98.1	80.4	100	110
GW441756 + AZD7762	116	96.6	100	107	102	111
BMS-536924 + U73122	103	82.8	86.6	120	97.9	71.8
fludarabine + AZD7762	101	91.4	88.1	86.4	96.9	103
dasatinib + TCS401	92.3	83.5	71.1	68.1	74.2	52.9
veliparib + A-769662	96.3	113	99.2	115	99.5	85.6
T0901317 + fingolimod	100	99.6	97.9	92.4	117	116
veliparib + TCS401	92.7	94.9	99.8	97.3	97.2	89.2
BMS-536924 + A-769662	96.0	93.6	81.8	99.4	98.6	134
T0901317 + AZD7762	120	108	94.7	99.3	141	101
GW441756 + nutlin-3	102	98.8	123	93.4	100	103
SU6656 + TCS401	99.9	74.3	85.2	90.0	74.8	70.9
BMS-536924 + T0901317	107	93.3	93.9	97.9	104	221
nutlin-3 + U73122	102	82.7	104	80.6	78.7	69.9
dasatinib + A-769662	86.6	80.6	62.0	74.0	89.0	51.6

4 of the entries, repeated:

| Combination | IST-MEL1 | C32 | COLO 792 | MEL-HO | LB2518-MEL | LOX IMVI |
|---|---|---|---|---|---|---|
| T0901317 + AZD7762 | 120 | 108 | 94.7 | 99.3 | 141 | 101 |
| T0901317 + fingolimod | 100 | 99.6 | 97.9 | 92.4 | 117 | 116 |
| veliparib + T0901317 | 104 | 84.0 | 105 | 94.9 | 90.5 | 78.1 |
| SU6656 + A-769662 | 98.0 | 85.8 | 87.2 | 85.7 | 96.8 | 115 |

Values as published with doi:10.1371/journal.pone.0140310, rounded.